Laboratory results published in publication PMC5342045.
These are yes or no findings as the source states them, for the method shown. In cells and extracts the contact can be indirect. Some entries that bind do so weakly or less than the wild type.

Protein sequences, listed by entry. Tags and fused reporters are not part of them.
UniProt P05556: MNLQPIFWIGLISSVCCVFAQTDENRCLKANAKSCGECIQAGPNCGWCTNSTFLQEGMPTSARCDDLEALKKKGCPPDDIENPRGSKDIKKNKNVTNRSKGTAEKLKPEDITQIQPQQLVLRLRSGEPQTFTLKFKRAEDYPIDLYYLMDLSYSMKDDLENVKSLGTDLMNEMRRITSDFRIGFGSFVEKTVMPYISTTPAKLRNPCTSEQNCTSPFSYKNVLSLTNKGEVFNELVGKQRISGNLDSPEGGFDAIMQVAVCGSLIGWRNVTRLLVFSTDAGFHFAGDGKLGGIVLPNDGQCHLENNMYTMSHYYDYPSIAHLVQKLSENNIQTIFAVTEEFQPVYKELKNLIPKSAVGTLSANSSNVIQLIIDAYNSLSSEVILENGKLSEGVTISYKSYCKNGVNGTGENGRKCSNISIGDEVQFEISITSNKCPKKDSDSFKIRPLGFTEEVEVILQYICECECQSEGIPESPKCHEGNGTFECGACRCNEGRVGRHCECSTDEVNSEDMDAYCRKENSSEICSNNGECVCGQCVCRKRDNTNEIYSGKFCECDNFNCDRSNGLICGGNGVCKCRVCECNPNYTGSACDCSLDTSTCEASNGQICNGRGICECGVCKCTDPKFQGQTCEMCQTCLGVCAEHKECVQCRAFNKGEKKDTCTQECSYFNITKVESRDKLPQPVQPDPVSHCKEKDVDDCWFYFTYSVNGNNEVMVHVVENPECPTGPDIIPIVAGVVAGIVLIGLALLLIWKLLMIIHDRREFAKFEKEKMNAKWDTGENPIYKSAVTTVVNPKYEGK

Legend:
[1] = molecular target: beta1 integrin (human (endogenous in LNCaP, PC3-PSMA and patients' prostate tissue)) (UniProt P05556); experiment: co-IP; IP of beta1 from RIPA lysates of frozen non neoplastic prostate area (NNA; PSMA not expressed); immunoblot
[2] = molecular target: beta1 integrin (human (endogenous in LNCaP, PC3-PSMA and patients' prostate tissue)) (UniProt P05556); experiment: co-IP; IP of beta1 from lysates of PC3-PSMA cells treated with gam or D2B+gam, same set-up as for LNCaP
[3] = molecular target: beta1 integrin (human (endogenous in LNCaP, PC3-PSMA and patients' prostate tissue)) (UniProt P05556); experiment: co-IP; IP of beta1 from the same lysates of LNCaP cells treated with gam or D2B+gam; 500 ug pre-cleared lysate, Protein G Sepharose; immunoblot
[4] = molecular target: beta1 integrin (human (endogenous in LNCaP, PC3-PSMA and patients' prostate tissue)) (UniProt P05556); experiment: co-IP; IP of beta1 from RIPA lysates of frozen prostate carcinoma tissue (PCa1, PCa2, GS 8; two pieces each); immunoblot

| binding [1] | binding [2] | binding [3] | binding [4] | Molecule |
| --- | --- | --- | --- | --- |
| binds | binds | binds | binds | filamin A (from UniProt P21333-2 1-2639) |
| – | binds | binds | binds | phospho-p130CAS (protein, UniProt P56945-6 1-916, phosphorylated (detected with an antibody to pp130CAS); the site is not given) MPAKPFLSSVLLSWKVLDFSGPGPQGTGQPCSCGHWAEGQGGPPEPAGGPNVLAKALYDNVAESPDELSFRKGDIMTVLEQDTQGLDGWWLCSLHGRQGIVPGNRLKILVGMYDKKPAGPGPGPPATPAQPQPGLHAPAPPASQYTPMLPNTYQPQPDSVYLVPTPSKAQQGLYQVPGPSPQFQSPPAKQTSTFSKQTPHHPFPSPATDLYQVPPGPGGPAQDIYQVPPSAGMGHDIYQVPPSMDTRSWEGTKPPAKVVVPTRVGQGYVYEAAQPEQDEYDIPRHLLAPGPQDIYDVPPVRGLLPSQYGQEVYDTPPMAVKGPNGRDPLLEVYDVPPSVEKGLPPSNHHAVYDVPPSVSKDVPDGPLLREETYDVPPAFAKAKPFDPARTPLVLAAPPPDSPPAEDVYDVPPPAPDLYDVPPGLRRPGPGTLYDVPRERVLPPEVADGGVVDSGVYAVPPPAEREAPAEGKRLSASSTGSTRSSQSASSLEVAGPGREPLELEVAVEALARLQQGVSATVAHLLDLAGSAGATGSWRSPSEPQEPLVQDLQAAVAAVQSAVHELLEFARSAVGNAAHTSDRALHAKLSRQLQKMEDVHQTLVAHGQALDAGRGGSGATLEDLDRLVACSRAVPEDAKQLASFLHGNASLLFRRTKATAPGPEGGGTLHPNPTDKTSSIQSRPLPSPPKFTSQDSPDGQYENSEGGWMEDYDYVHLQGKEEFEKTQKELLEKGSITRQGKSQLELQQLKQFERLEQEVSRPIDHDLANWTPAQPLAPGRTGGLGPSDRQLLLFYLEQCEANLTTLTNAVDAFFTAVATNQPPKIFVAHSKFVILSAHKLVFIGDTLSRQAKAADVRSQVTHYSNLLCDLLRGIVATTKAAALQYPSPSAAQDMVERVKELGHSTQQFRRVLGQLAAA |
